Source: article PMC12431657, “Discovery and mechanistic insights of dibenzoylmethane as a broad spectrum inhibitor of coronavirus” (PLOS Pathogens, 2025)
Like-named read-outs stand apart in the source and are kept apart here. About 95 (3%) of roughly 3,300 compounds showed an effect of 50% or more. The list shows a part of the results.

System: HCoV-229E
Set-up: species or system Huh-7; HTS, protection from HCoV-229E induced cell death, luminescent cell viability (CellCounting-Lite 2.0), inhibition rate
Settings: 24 h post infection, 1 h compound pre-incubation, 10 µM, inhibitor

O=C(O)CCCCCCCCCCCCCCCCC(=O)O [Octadecanedioic acid]
229E Inhibition rate: 18.5%

Oc1cc(O)c2c(c1)O[C@H](c1ccc(O)c(O)c1)[C@H](O)C2 [(-)-Epicatechin]
229E Inhibition rate: 6.6%

COC(=O)C1=CO[C@@H](O[C@@H]2O[C@H](CO)[C@@H](O)[C@H](O)[C@H]2O)[C@H]2[C@@H]1[C@H](O)C[C@]2(C)OC(C)=O [Barlerin]
229E Inhibition rate: 22.5%

COC(=O)CC(C)=O [Methyl acetylacetate]
229E Inhibition rate: 22.8%

O=C(/C=C/c1ccccc1)c1ccccc1 [Chalcone]
229E Inhibition rate (229E Inhibition rate, 24 h): 18.8%

O=C(CCCCc1ccc2c(c1)OCO2)N1CCCCC1 [Tetrahydropiperine]
229E Inhibition rate: 0%

COc1cc2c(=O)c(-c3ccc(O)cc3)coc2cc1O [Glycitein]
229E Inhibition rate: 11.9%

O=C(OCc1ccccc1)c1ccccc1O [Benzyl salicylate]
229E Inhibition rate: 24.5%

CC(CO)C(=O)O (stereo not shown) [3-Hydroxyisobutyric acid]
229E Inhibition rate: 14.2%

NCCCCNCCCN [Spermidine]
229E Inhibition rate (229E Inhibition rate, 24 h): 8.1%

CC1(C)[C@@H]2CC[C@@]1(C)[C@H](O)C2 [Isoborneol]
229E Inhibition rate: 29.1%

CN1CC(=O)NC1=O [N-Methylhydantoin]
229E Inhibition rate: 20%

C/C=C(/C)C(=O)O[C@H]1c2cc(OC)c(OC)c(OC)c2-c2c(cc(OC)c(OC)c2OC)C[C@H](C)[C@]1(C)O [Angeloylgomisin Q]
229E Inhibition rate: 42.2%

O=C1C=C(O)C(=O)c2ccccc21 [Lawsone]
229E Inhibition rate: 0%

CC(=O)O[C@@H]1CC[C@@]2(C)[C@@H](CC[C@]3(C)[C@@H]2CC=C2[C@@H]4CC(C)(C)CC[C@]4(C)CC[C@]23C)[C@@]1(C)C(=O)O [3-O-Acetyl-α-boswellic acid]
229E Inhibition rate: 21.9%

CC(C)=C[C@H]1C[C@](C)(O)[C@@H]2[C@H]3CC[C@@H]4[C@@]5(C)CC[C@H](O[C@@H]6O[C@H](CO)[C@@H](O)[C@H](O[C@@H]7O[C@H](CO)[C@@H](O)[C@H](O)[C@H]7O)[C@H]6O[C@@H]6O[C@@H](CO)[C@H](O)[C@H]6O)C(C)(C)[C@@H]5CC[C@@]4(C)[C@@]34CO[C@@]2(C4)O1 [Bacoside A3]
229E Inhibition rate: 8.1%

COc1c(C)c(O)cc2[o+]c(-c3ccccc3)ccc12 [Dracorhodin perchlorate]
229E Inhibition rate: 14.3%

CC(=O)OCc1cocc2c(C=O)ccc1-2 [Baldrinal]
229E Inhibition rate: 25.5%

C[C@H](CC[C@@H](O[C@@H]1O[C@H](CO[C@@H]2O[C@H](CO)[C@@H](O)[C@H](O)[C@H]2O)[C@@H](O)[C@H](O)[C@H]1O[C@@H]1O[C@H](CO)[C@@H](O)[C@H](O)[C@H]1O)C(C)(C)O)[C@H]1CC[C@@]2(C)[C@@H]3CC=C4[C@@H](CC[C@H](O[C@@H]5O[C@H](CO[C@@H]6O[C@H](CO)[C@@H](O)[C@H](O)[C@H]6O)[C@@H](O)[C@H](O)[C@H]5O)C4(C)C)[C@]3(C)[C@H](O)C[C@]12C [Mogroside V]
229E Inhibition rate: 0%
